Source: the supplement of paper PMC12578635
The other results are listed elsewhere or left out. Cut-off read from the data, not from the text of the source: active = 150% or more and inactive = the rest. Repeats are few or missing, and single values can be far off.

Test system: Staphylococcus aureus JE2-lux inside RAW 264.7 macrophages
Assay: intracellular bacterial bioluminescence relative to DMSO vehicle; higher = higher intracellular bacterial metabolic activity
Settings: 10 µM; treatment time 4 h; gentamicin 50 µg/ml

Intracellular bacterial bioluminescence, inactive:
CC(=O)Nc1ccc(S(=O)(=O)NCCc2cn3ccc(C)cc3n2)cc1 101%
CCC(=O)Nc1ccc(NC(=O)c2cc(OC)c(OC)c(OC)c2)cn1 125%
O=C(Nc1nccs1)c1cc2c(=O)n3ccccc3nc2s1 113%
COc1cccc(NC(=O)N2C3CCCC2CC(NC(C)=O)C3)c1 (stereo not given) 102%
Cc1ccc(S(=O)(=O)Nc2ccccc2C(=O)Nc2sccc2C(N)=O)cc1 118%
Cc1ccc2nc3c(cc(S(=O)(=O)c4ccc(Cl)cc4)c(=N)n3C3CCCC3)c(=O)n2c1 126%
CC(=O)Nc1cc(-c2ccccc2)nn1-c1nc(-c2ccccc2)cs1 82.2%
Cc1ccc2cc(CCNC(=O)COc3ccc4ccccc4c3)c(=O)[nH]c2c1 87.2%
O=C(Cc1ccc(F)cc1)Nc1nnc(-c2ccccc2)[nH]1 110%
C=CCNC(=O)Cn1c(C)c(Cc2ccccc2)c(=O)n2nc(-c3ccc(C)cc3)nc12 96.4%
O=C(c1ccccc1F)N1CCc2cc(-c3csc(-c4cccnc4)n3)ccc21 23.6%
COc1cc2ccccc2cc1C(=O)Nc1nnc(-c2ccncc2)o1 84.7%
Cc1ccc2c(c1)/C(=N\NC(=S)Nc1cccc(O)c1)C(=O)N2 102%
CC1C(c2ccc(F)cc2)=NOC1C(=O)NC(c1ccccc1)c1ccnn1C (stereo not given) 113%
Cc1ccc(S(=O)(=O)N(C)c2cncc(C(=O)NC(C)C)c2)cc1 115%
Cc1nc2ccccc2n1C(=O)c1ccccc1C(=O)O 108%
Cc1c(C)n(-c2ccccc2)c2nc(C(=O)NCCCN3CCCC3=O)nc(N3CCCCC3)c12 38.7%
CCOCCn1/c(=N\C(=O)c2cccc(S(C)(=O)=O)c2)sc2cccc(F)c21 103%
Cc1nn(C)c(C)c1S(=O)(=O)N1CCc2c(c(C(=O)N3CCOCC3)nn2C)C1 83.2%
COc1cccc(-c2noc(NC3CCCCC3)n2)c1 87.8%
Cc1cc(C)c2cc(CNCC3CCCO3)c3nn(C)c(=O)n3c2c1 (stereo not given) 48.8%
CCCCN(C)S(=O)(=O)c1ccc(C(=O)Nc2ccc3ccccc3c2)cc1 108%
CCOC(=O)N1CCN(C(=O)CSCC(=O)/N=c2\sc3cc(OC)ccc3n2C)CC1 58.5%
Cc1ccc2c(Cl)c(C(=O)Nc3cc(-c4ccc(F)cc4)no3)sc2c1 112%
O=C(O)c1cccc(N2C(=O)CC(Nc3ccc(F)cc3)C2=O)c1 (stereo not given) 113%

5 compounds from above, ordered by count of non-hydrogen atoms, smallest number first:
Intracellular bacterial bioluminescence, inactive:
Cc1nc2ccccc2n1C(=O)c1ccccc1C(=O)O 108%
O=C(Nc1nccs1)c1cc2c(=O)n3ccccc3nc2s1 113%
O=C(O)c1cccc(N2C(=O)CC(Nc3ccc(F)cc3)C2=O)c1 (stereo not given) 113%
CC(=O)Nc1ccc(S(=O)(=O)NCCc2cn3ccc(C)cc3n2)cc1 101%
CC1C(c2ccc(F)cc2)=NOC1C(=O)NC(c1ccccc1)c1ccnn1C (stereo not given) 113%
